Results: US20080153754A1
No constants are given. Whether binding was seen depends on the method and setting. In cells and extracts the contact can be indirect. Some entries that bind do so weakly or less than the wild type.

Protein sequences, listed by entry. Tags and fused reporters are not part of them.
UniProt P09560: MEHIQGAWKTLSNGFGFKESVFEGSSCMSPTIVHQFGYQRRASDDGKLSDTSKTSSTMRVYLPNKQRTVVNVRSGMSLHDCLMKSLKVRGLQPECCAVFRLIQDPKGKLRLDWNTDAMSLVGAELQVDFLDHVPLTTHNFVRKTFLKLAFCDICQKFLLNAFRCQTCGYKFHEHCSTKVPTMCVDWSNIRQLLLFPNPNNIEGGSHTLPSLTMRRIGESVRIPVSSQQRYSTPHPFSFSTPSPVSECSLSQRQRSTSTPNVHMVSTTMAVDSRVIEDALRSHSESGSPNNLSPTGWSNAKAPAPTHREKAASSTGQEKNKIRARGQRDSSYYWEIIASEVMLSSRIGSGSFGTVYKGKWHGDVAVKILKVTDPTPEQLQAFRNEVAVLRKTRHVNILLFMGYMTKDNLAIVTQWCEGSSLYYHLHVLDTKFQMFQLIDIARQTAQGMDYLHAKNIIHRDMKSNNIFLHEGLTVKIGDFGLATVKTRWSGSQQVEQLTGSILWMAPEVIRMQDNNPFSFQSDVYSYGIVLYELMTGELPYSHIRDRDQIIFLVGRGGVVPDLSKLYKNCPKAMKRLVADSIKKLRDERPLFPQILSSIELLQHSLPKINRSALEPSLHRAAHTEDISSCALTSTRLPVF

Experiments:
[1] = target: raf (Xenopus laevis) (UniProt P09560); test: co-immunoprecipitation with anti-Ha-ras from insulin-matured oocytes, blot with anti-raf (FIG. 4B)
[2] = target: raf (Xenopus laevis) (UniProt P09560); test: co-immunoprecipitation with anti-Ha-ras from insulin-matured oocytes, blot (FIG. 4B)

binding [1]: binds
binding [2]: binds
Substance: endogenous Ha-ras-p21 (insulin-activated wild-type ras-p21 of the oocytes) (from UniProt Q8UUZ4 1-186)
